These are yes or no findings as the source states them, for the method shown. Binding seen in cells or lysates may run through a third protein. These calls come from enrichment with a bait or labelling near it, and not all partners need be listed. Tags and fused reporters may be left off the sequences shown.
T1: cytochrome c1 subunit of the Rhodobacter sphaeroides cytochrome bc1 complex, His10-tagged (Rhodobacter sphaeroides) (UniProt Q02760)
T1 sequence: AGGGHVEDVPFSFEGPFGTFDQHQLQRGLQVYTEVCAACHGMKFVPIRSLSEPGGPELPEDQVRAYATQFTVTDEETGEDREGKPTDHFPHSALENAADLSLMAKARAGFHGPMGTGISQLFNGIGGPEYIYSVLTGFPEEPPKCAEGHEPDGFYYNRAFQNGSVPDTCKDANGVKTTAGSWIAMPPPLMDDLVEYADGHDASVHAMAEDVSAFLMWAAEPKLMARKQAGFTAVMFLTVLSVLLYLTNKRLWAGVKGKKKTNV

Chains of the proteins cited; added tags and fusions are not shown. Lines headed by an entry give the natural chain unless they say otherwise; changes in a name come on top.
UniProt Q3J2Z2: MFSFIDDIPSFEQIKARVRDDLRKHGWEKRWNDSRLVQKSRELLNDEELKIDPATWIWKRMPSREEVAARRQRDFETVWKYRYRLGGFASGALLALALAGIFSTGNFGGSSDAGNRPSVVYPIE

B1: cytochrome b subunit of the Rhodobacter sphaeroides cytochrome bc1 complex (protein, UniProt Q02761 1-445)
chain: MSGIPHDHYEPRTGIEKWLHSRLPIVALAYDTIMIPTPRNLNWMWIWGVVLAFCLVLQIVTGIVLAMHYTPHVDLAFASVEHIMRNVNGGFMLRYLHANGASLFFIAVYLHIFRGLYYGSYKAPREVTWIVGMLIYLAMMATAFMGYVLPWGQMSFWGATVITGLFGAIPGIGHSIQTWLLGGPAVDNATLNRFFSLHYLLPFVIAALVAIHIWAFHSTGNNNPTGVEVRRTSKAEAQKDTVPFWPYFIIKDVFALAVVLLVFFAIVGFMPNYLGHPDNYIEANPLSTPAHIVPEWYFLPFYAILRAFTADVWVVQIANFISFGIIDAKFFGVLAMFGAILVMALVPWLDTSPVRSGRYRPMFKIYFWLLAADFVILTWVGAQQTTFPYDWISLIASAYWFAYFLVILPILGAIEKPVAPPATIEEDFNAHYSPATGGTKTVVAE
B2: Rieske iron-sulfur protein subunit of the Rhodobacter sphaeroides cytochrome bc1 complex (natural protein, UniProt Q02762 1-187, looked up)
chain: MSNAEDHAGTRRDFLYYATAGAGAVATGAAVWPLINQMNPSADVQALASIFVDVSSVEPGVQLTVKFLGKPIFIRRRTEADIELGRSVQLGQLVDTNARNANIDAGAEATDQNRTLDEAGEWLVMWGVCTHLGCVPIGGVSGDFGGWFCPCHGSHYDSAGRIRKGPAPENLPIPLAKFIDETTIQLG
notes: also called Rieske subunit; Rieske ISP; source: endogenous, R. sphaeroides grown photosynthetically; SMA-solubilised membranes, purified in native nanodiscs (Ni-NTA, sucrose gradient, SEC)

molecular target: T1, cytochrome c1 subunit of the Rhodobacter sphaeroides cytochrome bc1 complex, His10-tagged (Rhodobacter sphaeroides); test: affinity purification with mass spectrometry

binding, binds:
subunit IV of the Rhodobacter sphaeroides cytochrome bc1 complex (from UniProt Q3J2Z2)
B1
B2

Source: PMC10041115, “Cryo-EM structure of the four-subunit Rhodobacter sphaeroides cytochrome bc1 complex in styrene maleic acid nanodiscs” (Proceedings of the National Academy of Sciences of the …, 2023)
